No constants are given. Whether binding was seen depends on the method and setting. Some binding calls cover weakened binding; strength is not graded here.
Target: HBHA(1-109), devoid of its linker and heparin-binding domain regions, from pKT25_hbhA(1-109) (Mycobacterium tuberculosis H37Rv) (UniProt P9WIP9)
Assay: two-hybrid

Amino acid sequences for entries named in this document (tags omitted). Residues count along the entry.
UniProt P9WIP9, residues 1-109: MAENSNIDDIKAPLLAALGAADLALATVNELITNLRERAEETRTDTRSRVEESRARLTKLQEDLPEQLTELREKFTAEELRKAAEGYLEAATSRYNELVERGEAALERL

| Substance | binding |
| --- | --- |
| MmpL14(519-749), from pUT18C_mmpL14(519-749) (from UniProt A5U3C1 519-749) (domain or fragment) | binds |
| Rv0613c(314-550), from pUT18C_rv0613c(314-550) (from UniProt I6Y897 314-550) (domain or fragment) | binds |

Source: PMC6032435
